Results are given in words; binding and its absence hold for the method and conditions named. Binding seen in cells or lysates may run through a third protein. A yes stands for co-enrichment or nearness to the bait. Other partners may have been found. Where a sequence is shown, tags or fusion partners need not be part of it.
Target: T1, Flag-RNF112 (overexpressed in T24 cells) (UniProt Q9ULX5)
T1 sequence: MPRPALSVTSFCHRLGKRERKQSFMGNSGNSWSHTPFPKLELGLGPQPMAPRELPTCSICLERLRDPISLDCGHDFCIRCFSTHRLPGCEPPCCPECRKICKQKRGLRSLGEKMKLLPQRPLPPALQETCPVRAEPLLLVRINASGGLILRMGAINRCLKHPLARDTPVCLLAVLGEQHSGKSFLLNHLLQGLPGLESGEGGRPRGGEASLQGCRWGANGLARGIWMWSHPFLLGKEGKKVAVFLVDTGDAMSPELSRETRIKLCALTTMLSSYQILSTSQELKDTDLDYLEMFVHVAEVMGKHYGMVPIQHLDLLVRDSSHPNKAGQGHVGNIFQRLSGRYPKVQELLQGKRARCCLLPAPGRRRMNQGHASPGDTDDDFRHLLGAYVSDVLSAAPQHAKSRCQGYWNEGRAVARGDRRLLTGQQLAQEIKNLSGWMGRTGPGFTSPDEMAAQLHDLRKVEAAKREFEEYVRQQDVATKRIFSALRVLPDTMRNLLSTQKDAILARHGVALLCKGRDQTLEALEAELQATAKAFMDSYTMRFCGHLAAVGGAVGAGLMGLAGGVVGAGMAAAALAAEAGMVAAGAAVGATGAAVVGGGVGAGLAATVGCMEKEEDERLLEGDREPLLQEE
Assay: affinity purification with mass spectrometry; Flag-RNF112 overexpressed in T24 cells for two days; IP, SDS-PAGE, silver staining, mass spectrometry

By UniProt entry, the sequences of proteins in these tests, tags left out. Residues count along the entry.
UniProt P01106, residues 16-454: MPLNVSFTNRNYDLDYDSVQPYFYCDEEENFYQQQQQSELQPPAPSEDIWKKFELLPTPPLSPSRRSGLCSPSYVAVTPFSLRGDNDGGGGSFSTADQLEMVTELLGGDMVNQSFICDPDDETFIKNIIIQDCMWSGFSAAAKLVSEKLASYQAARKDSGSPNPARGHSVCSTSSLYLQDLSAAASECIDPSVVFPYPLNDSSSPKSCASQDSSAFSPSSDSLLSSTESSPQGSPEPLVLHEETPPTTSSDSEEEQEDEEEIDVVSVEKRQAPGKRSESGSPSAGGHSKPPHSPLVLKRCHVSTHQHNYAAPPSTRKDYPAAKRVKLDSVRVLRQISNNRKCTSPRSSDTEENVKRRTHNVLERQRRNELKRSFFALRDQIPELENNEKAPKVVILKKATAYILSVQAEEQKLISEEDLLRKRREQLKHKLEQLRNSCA

With “c-Myc (endogenous, T24 cells) (from UniProt P01106-1 1-439)” the binding was “binds”.
